{"source": "PubChem BioAssay AID1347423", "about": "(Functional Genomics Laboratory (NCATS/FGL), 2020)", "note": "The campaign covered roughly 52,000 sequences. About 210 (0.4%) were called active.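 Rule for the calls: active = gene whose silencing raises cell survival under the drug, median off-target-corrected z-score across its silencing RNAs 2 or more; inactive = the rest.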 Some of the results follow.", "data": [{"assay": "Resistance to Poly (ADP-Ribose) Polymerase inhibitor: Gene Identification via Genome-wide siRNA Screen", "conditions": "mouse BRCA2 R2336H ES cells, olaparib, CellTiter-Glo viability; hits give high values", "summary_of_the_method": "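Mouse BRCA2 R2336H ES cells were reverse-transfected with siRNA (20 nM final), treated at 48 h with 500 nM olaparib, and read by CellTiter-Glo after 72 h. Scores: MAD-based z per siRNA, median per gene, seed off-target correction.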", "values": [{"sequence": "GCAAGAUGCAGGAUUGUAATT against Gprc5d", "z-score": "inactive: -0.923"}, {"sequence": "GGUAGACCUAGAACAGCACTT against Ttyh2", "z-score": "inactive: -0.44"}, {"sequence": "GGAGAAUGUAGAUGAAGCUTT against Dhrs2", "z-score": "inactive: 0.333"}, {"sequence": "GGUCCAUUGCUAAAGACUGTT against Tcf19", "z-score": "inactive: 0.0826"}, {"sequence": "GGGUAUUGCUGGACAACGUTT against Col1a1", "z-score": "inactive: -0.227"}, {"sequence": "GGCUAGUGUUUUCAACAAUTT against Atp10d", "z-score": "inactive: 0.136"}, {"sequence": "GGCAUCCUGUCUGUUAUCUTT against Ptdss1", "z-score": "inactive: 0.845"}, {"sequence": "GCCUACAAGCAGGUACUAUTT against Olfr30", "z-score": "inactive: -2.25"}, {"sequence": "GCGAUAUUAACUAUGGAGATT against 9630018L10Rik", "z-score": "inactive: -0.375"}, {"sequence": "GGCUGUGCGUGUUACAAAATT against Keo4", "z-score": "inactive: -0.334"}, {"sequence": "GGCUGUCUCCCUAGUGAAATT against Shrm", "z-score": "inactive: 0.74"}, {"sequence": "GGAGUGAUUCAGUGAAAACTT against 1700012F17Rik", "z-score": "inactive: 0.379"}, {"sequence": "GCGAUAUAAGAGAGACAAGTT against 9030407H20Rik", "z-score": "inactive: 1.09"}, {"sequence": "GGUGGAAUGAGGAAACAACTT against Cck", "z-score": "inactive: -0.755"}, {"sequence": "GCAAAGGGUGAUUCUUACCTT against 1700027A23Rik", "z-score": "inactive: -0.421"}, {"sequence": "GGUGAUGAUGUCAUACAAATT against Cav1", "z-score": "inactive: 0.0573"}, {"sequence": "GCUUAAAUCCGACGAGAAGTT against Rrm2b", "z-score": "inactive: -0.0248"}, {"sequence": "GAAGAUGGUAGAGUCUACATT against Hcst", "z-score": "inactive: -1.68"}, {"sequence": "GCUGCAGAGAAGAGCAAUGTT against Olfr872", "z-score": "inactive: 4.21"}, {"sequence": "GGGCUAGAUGAAUUUUUGATT against Agtrl1", "z-score": "inactive: 0.251"}, {"sequence": "GGAUUUCUCCAUGAUGAGATT against 1700036D21Rik", "z-score": "inactive: 0.365"}, {"sequence": "GGAGGAACUGAUCUUUCGATT against Gdnf", "z-score": "inactive: 0.0743"}, {"sequence": "CAGGAUUCCUUGGACAUACTT against Olfr477", "z-score": "inactive: -1.99"}, {"sequence": "CGUAUUGAUGUUGGGUAGCTT against Oas1c", "z-score": "inactive: 0.85"}, {"sequence": "GGCAGAUCUAUUGACAAACTT against Nts", "z-score": "inactive: 0.0721"}, {"sequence": "CCUCAUUGUACCUUGCUGATT against Surf6", "z-score": "inactive: 0.98"}, {"sequence": "GGAGUUUUACGCACUCUGUTT against Ixl", "z-score": "inactive: 1.24"}, {"sequence": "GGGAAAUGUUUUCCAAAGATT against Tep1", "z-score": "inactive: 0.921"}, {"sequence": "GGGAAAACAGGUACGACUGTT against Odf1", "z-score": "inactive: 0.805"}, {"sequence": "GGACUUCUACACCUCGAAATT against X83328", "z-score": "inactive: 0.341"}, {"sequence": "GGAAGUUCUACACUCGUCUTT against Fzd2", "z-score": "inactive: 0.0921"}, {"sequence": "GGCUGUGAUCUCCUGGCUUTT against B830028P19Rik", "z-score": "inactive: -0.0956"}, {"sequence": "CCCUCUGAACUAUAUGACUTT against Olfr700", "z-score": "inactive: -0.627"}, {"sequence": "GCAUAUCGCUUUUGUGAGCTT against E2f6", "z-score": "inactive: 1.06"}, {"sequence": "CCAGGAAAUUCGUGCAUGATT against Rutbc1", "z-score": "inactive: -2.31"}, {"sequence": "CCUGGUUUACAUGUACGGGTT against Tap2", "z-score": "inactive: -0.756"}, {"sequence": "GGCUAUUUGAAAACCAACUTT against 2310001A20Rik", "z-score": "inactive: -0.0353"}, {"sequence": "CCUCUGUGUUAUUUUGCAUTT against Pgm2", "z-score": "inactive: 1.61"}, {"sequence": "GGUGGAUUUCUAUGUUCAATT against 2410043F08Rik", "z-score": "inactive: -1"}, {"sequence": "GAAUCUUACCCUCUUUCUCTT against Olfr541", "z-score": "inactive: 0.176"}, {"sequence": "GGAACAUUUUGAGAUUUACTT against Abca5", "z-score": "inactive: 2.8"}, {"sequence": "GGACCAUUCAUGGACUAGCTT against Mtap7", "z-score": "inactive: 0.657"}, {"sequence": "GCAGUUUUAUAAUCCUAGUTT against Tceb3", "z-score": "inactive: 0.508"}, {"sequence": "CCUCUAUUCUCCGUCUAUGTT against Fars1", "z-score": "inactive: 0.313"}, {"sequence": "GGUCCGGUGAAAGGAUUUUTT against Spag11", "z-score": "inactive: -0.331"}, {"sequence": "GGAUCUUCUCUGCCUAUAUTT against Arpc1b", "z-score": "inactive: -3.47"}, {"sequence": "GGUCGCUGUGAAAAUAAUATT against Mark1", "z-score": "inactive: -0.927"}, {"sequence": "GGAUGAGGGCGACUACUUUTT against Thy1", "z-score": "inactive: -0.617"}, {"sequence": "GGAAAGUGGACACCUUCCATT against AI854408", "z-score": "inactive: -1.04"}, {"sequence": "GGUCAAUCAGUUAUAAGCUTT against 5430413I02Rik", "z-score": "inactive: 1.24"}, {"sequence": "GGGUGAUUUCUUGAGUACATT against 1200009I06Rik", "z-score": "inactive: 0.0539"}, {"sequence": "GGCCAUUUUUCUAGUGCUUTT against 1110038F14Rik", "z-score": "inactive: -0.859"}, {"sequence": "GCGUAGAGUCCUUUCGUCUTT against Krt1-10", "z-score": "inactive: -0.936"}, {"sequence": "GCUGAUGGUAUAAAAGUAGTT against Glud1", "z-score": "inactive: -0.789"}, {"sequence": "GCACUUUAAUCUGGCUACCTT against Dnmt3b", "z-score": "inactive: -1.11"}, {"sequence": "GGUGGAAGGACUUACAAUCTT against Ptgds2", "z-score": "inactive: 0.347"}, {"sequence": "GGAUAUCCACAGAAAUCAATT against 1200002N14Rik", "z-score": "inactive: 1.71"}, {"sequence": "GCUGAUUAACCCUCAGUAUTT against Gpc6", "z-score": "inactive: -1.23"}, {"sequence": "GGUAGUGUCUGUAUUCUACTT against Olfr508", "z-score": "inactive: 0.0277"}, {"sequence": "GCCAGUUCUAGAAAUACCATT against 8430429K09Rik", "z-score": "inactive: -0.101"}, {"sequence": "CCCAAAACGGUAGCUUAAGTT against Chc1", "z-score": "inactive: 0.0857"}, {"sequence": "GGAAAGGUGUAUUCUUAAUTT against Bhlhb5", "z-score": "inactive: -0.617"}, {"sequence": "CCACUUUCGCUUUACCAAUTT against C330011M18Rik", "z-score": "inactive: 0.267"}, {"sequence": "GGAGGUCCAGCUGUUCAUGTT against Kcnn4", "z-score": "inactive: 2.89"}, {"sequence": "GGAGGUUAUGUUUAAAACUTT against Dnchc1", "z-score": "inactive: -1.11"}, {"sequence": "GGUAUGUUGGAAAGUCUUUTT against 5730577I03Rik", "z-score": "inactive: -1.7"}]}]}
